{"source": "PubChem BioAssay AID1159578 | Peter MacCallum Cancer Centre, 2015", "aim": "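Knock-downs that alter how fast lymphatic endothelial cells migrate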 (primary screen)", "cell system": "human lymphatic endothelial cells", "reagent": "siRNA pool against human genes, 40 nM", "duration": "48 h after transfection", "read-out": "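High-content imaging of dye-stained cells in a scratch assay measures filled wound area and nuclei per well; duplicate means given as ratio to mock and robust z-score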", "reading the numbers": "migration robust z-score: higher = faster migration into the scratch; nuclei per well: higher = more cells in the well", "rule for the call": "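Pools averaging fewer than 3300 nuclei are never called; remaining pools count as changed when migration robust z lies outside -2 to 2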", "calls": "active = migration changed; inactive = no migration change, or too few cells", "note": "Shown is an unselected part of about 18,000 deposited reagents. Of all reagents, about 1,030 (5.7%) were called active. 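Inactive calls also include pools with fewer than 3300 nuclei, whose migration was not assessed.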 Raw values are not corrected between plates. The numbers tell different reagents against one gene apart. Not all columns of the deposit are shown."}
{"Gene": "KLHL30", "reagent": 1, "migration robust z-score": 2, "nuclei per well, duplicate mean": 4782, "outcome": "inactive"}
{"Gene": "CLCA4", "reagent": 1, "migration robust z-score": -0.6, "nuclei per well, duplicate mean": 4996, "outcome": "inactive"}
{"Gene": "CLEC10A", "reagent": 1, "migration robust z-score": -0.79, "nuclei per well, duplicate mean": 4783, "outcome": "inactive"}
{"Gene": "SERPINA10", "reagent": 1, "migration robust z-score": -0.88, "nuclei per well, duplicate mean": 4622, "outcome": "inactive"}
{"Gene": "WDR41", "reagent": 1, "migration robust z-score": 0.92, "nuclei per well, duplicate mean": 5934, "outcome": "inactive"}
{"Gene": "ENOX2", "reagent": 1, "migration robust z-score": -1.12, "nuclei per well, duplicate mean": 6997, "outcome": "inactive"}
{"Gene": "ZCCHC3", "reagent": 1, "migration robust z-score": -2.14, "nuclei per well, duplicate mean": 3306, "outcome": "active"}
{"Gene": "STYX", "reagent": 1, "migration robust z-score": 0.78, "nuclei per well, duplicate mean": 5272, "outcome": "inactive"}
{"Gene": "PPIL4", "reagent": 1, "migration robust z-score": 0.88, "nuclei per well, duplicate mean": 4977, "outcome": "inactive"}
{"Gene": "GSE1", "reagent": 1, "migration robust z-score": -0.14, "nuclei per well, duplicate mean": 4977, "outcome": "inactive"}
{"Gene": "CDKN1A", "reagent": 1, "migration robust z-score": -1.38, "nuclei per well, duplicate mean": 4824, "outcome": "inactive"}
{"Gene": "ING5", "reagent": 1, "migration robust z-score": -1.04, "nuclei per well, duplicate mean": 5043, "outcome": "inactive"}
{"Gene": "VCF1", "reagent": 1, "migration robust z-score": -0.6, "nuclei per well, duplicate mean": 6150, "outcome": "inactive"}
{"Gene": "MFSD8", "reagent": 1, "migration robust z-score": -1.31, "nuclei per well, duplicate mean": 5889, "outcome": "inactive"}
{"Gene": "XPC", "reagent": 1, "migration robust z-score": 0.27, "nuclei per well, duplicate mean": 7176, "outcome": "inactive"}
{"Gene": "CLIC5", "reagent": 1, "migration robust z-score": -0.7, "nuclei per well, duplicate mean": 4068, "outcome": "inactive"}
{"Gene": "ALG13", "reagent": 1, "migration robust z-score": -0.35, "nuclei per well, duplicate mean": 6812, "outcome": "inactive"}
{"Gene": "ALG13", "reagent": 2, "migration robust z-score": 0.65, "nuclei per well, duplicate mean": 6154, "outcome": "inactive"}
{"Gene": "FTSJ1", "reagent": 1, "migration robust z-score": 0.78, "nuclei per well, duplicate mean": 5624, "outcome": "inactive"}
{"Gene": "METTL2A", "reagent": 1, "migration robust z-score": 0.97, "nuclei per well, duplicate mean": 4920, "outcome": "inactive"}
{"Gene": "WNT5A", "reagent": 1, "migration robust z-score": -1.94, "nuclei per well, duplicate mean": 3870, "outcome": "inactive"}
